Screen size: about 390,000 compounds; about 610 (0.16%) were called active. The shares of active, inactive and inconclusive entries below differ from those in the screen. Calls follow the shape of the dose curve; as a rule, active = well fitted inhibition curve with a large enough effect; inconclusive = small, poorly fitted or top-dose-only effect, or effect the other way, or another doubt; inactive = no such curve, though single readings can be large or run the other way. Potencies of inconclusive entries are doubtful fits and often do not repeat.
Assay: Nrf2 qHTS screen for inhibitors: counterscreen for cytotoxicity
Details: A549 ARE-Fluc cells, CellTiter-Fluor viability, 18-24 h; series mostly up to 46 µM
Outline: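 Cytotoxicity counterscreen: CellTiter-Fluor fluorescence was measured in A549 ARE_Fluc cells after 18-24 h of compound exposure in a concentration series. The subsequent BugLite luminescent read reports ARE-luciferase activity.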
Potency is read from the fitted curve at half-maximal effect.

SMILES	Potency
CCCCCCCc1ccc(-c2ccc(O)cc2)nc1	inactive
CCOC(=O)C1=C(CP(=O)(c2ccccc2)c2ccccc2)NC(=O)NC1c1ccc(Cl)cc1 (centres undefined)	inconclusive: 29.1 µM [falling, single point]
Cc1cc(N(CCO)CCO)ccc1N=Nc1cc(F)ccc1F	inconclusive: 18.4 µM [falling, partial curve, poor fit]
COc1ccccc1-c1cc(C(=O)Nc2cc(C)n(Cc3ccc(Cl)cc3)n2)no1	inconclusive: 23.1 µM [falling, single point]
COc1ccc(CCNC(=O)/C=C/c2ccc(OC)c(S(=O)(=O)N3CCOCC3)c2)cc1	inconclusive: 32.6 µM [activator, partial curve, poor fit]
Cc1ccccc1N1CCN(C2=NC(=O)/C(=C\c3cccs3)S2)CC1	inconclusive: 18.4 µM [falling, single point]
CCc1ccc(NC(=O)CC(NCc2cccnc2)C(=O)O)cc1 (centres undefined)	inactive
C=CC(=O)Nc1cccc(Nc2nc(N[C@H]3CC[C@H](N(C)C)CC3)nc3c2ncn3C(C)C)c1	active: 2.59 µM
COc1ccccc1CC(=O)Nc1ccc(-c2noc(COc3ccc(Br)cc3)n2)cc1	inconclusive: 29.1 µM [falling, single point]
NNC(=O)c1ccc(CN2C(=O)c3cccc4cccc2c34)cc1	inconclusive: 29.1 µM [activator, single point]
FC(F)(F)c1nnc2sc(-c3cccs3)nn12	inactive
CCOc1ccccc1N1CCN(C(=O)C2c3ccccc3Oc3ccccc32)CC1	inconclusive: 29.1 µM [falling, partial curve, poor fit]
CCOC(=O)C1(CCCc2ccccc2)CCN(C(=O)c2cnc(C)cn2)CC1	inactive
CN(C)CCN(CC1CCCN(Cc2ccccc2F)C1)C(=O)c1ccc(F)cc1 (centres undefined)	inconclusive: 10.3 µM [falling, partial curve, poor fit]
COc1cc(C2Nc3ccc4ncccc4c3C3=C2C(=O)CCC3)cc(OC)c1O (centres undefined)	inconclusive: 23.1 µM [falling, partial curve, poor fit]
CCC(/C=C1\Sc2ccc(OC)cc2N1CC)=C\c1sc2ccc(OC)cc2[n+]1CCCS(=O)(=O)[O-]	inconclusive: 5.8 µM [falling, partial curve]
CSc1ncnc2c1ncn2CC(=O)C1CCC2C3CCC4=CC(=O)CCC4(C)C3CCC12C (centres undefined)	inconclusive: 20.6 µM [falling, single point]
c1ccc(-c2noc(CSc3nc4ccccc4o3)n2)cc1	inconclusive: 5.17 µM [activator, partial curve, poor fit]
O=C1[C@@H]2Cc3c([nH]c4ccccc34)C(c3cccc(Br)c3)N2C(=O)CN1C1CCN(Cc2ccccc2)CC1 (some centres undefined)	inconclusive: 8.2 µM [falling, partial curve]
Cc1ccccc1Cn1ccn(-c2ccc(F)c(F)c2)c(=O)c1=O	inactive
CN1CCN(C(=O)CCCN2C(=O)/C(=C/c3ccc(Cl)cc3)SC2=S)CC1	inconclusive: 18.4 µM [falling, single point]
COc1ccc(/C=C/C(=O)c2c(O)ccc3c(C)cc(=O)oc23)cc1	inactive

SMILES	Potency
CCOC(=O)N1CCC(NC(=O)c2ccc3c(c2)N(Cc2ccccc2C)C(=O)c2ccccc2S3=O)CC1 (centres undefined)	inactive
Clc1ccc(C2=Nn3c(nnc3-c3n[nH]c4c3CCC4)SC2)cc1Cl	inconclusive: 32.6 µM [falling, partial curve, poor fit]
CCN(CC)c1nc(C)nc2c1cnn2CCc1ccccc1	inconclusive: 18.4 µM [activator, partial curve, poor fit]
Cc1cccc(-c2nc(SCc3cc(=O)c4c(C)cc(C)cc4[nH]3)n[nH]2)c1	inconclusive: 23.1 µM [falling, partial curve, poor fit]
CCN(C(=O)CN1C(=O)c2ccccc2Sc2ccc(C(=O)OC)cc21)c1cccc(C)c1	inactive
C/C(=N\NC(=O)c1c(Br)cnn1C)c1ccc(NC(=O)c2ccc(F)cc2)cc1	inconclusive: 20.6 µM [falling, partial curve, poor fit]
CC1CCCC(CC(N)=O)CC1 (centres undefined)	inactive
CC(C)C1CC(=O)NC(SCC(=O)Nc2ccc(Br)cc2)=C1C#N (centres undefined)	inconclusive: 20.6 µM [falling, partial curve, poor fit]
N[C@@H](Cc1ccccc1)C(=O)N1CCC(C(=O)NCC(=O)Nc2ccc(F)cc2)CC1	inconclusive: 5.8 µM [falling, full curve]
Cc1ccc2nc(Cl)c(C3CC(c4ccco4)=NN3S(C)(=O)=O)cc2c1 (centres undefined)	inactive
COc1ccc(-n2c(SCC(=O)NCc3ccc(F)cc3)nc3c([nH]c4ccccc43)c2=O)cc1	inactive
Nc1cccc2c1C(=O)N(CCOc1ccccc1F)C2=O	inconclusive: 25.9 µM [activator, partial curve]
NC(=O)C[n+]1cccc2ccccc21	inconclusive: 6.51 µM [activator, single point]
COc1ccc(NC(=O)Nc2cccc(C(F)(F)F)c2)cn1	inconclusive: 25.9 µM [falling, partial curve, poor fit]
Cc1cc(C)c2nc(-c3ccccn3)cc(C(=O)Nc3ccc(S(=O)(=O)Nc4cc(C)on4)cc3)c2c1	inconclusive: 29.1 µM [falling, single point]
Cc1ccc(-c2cc(C(=O)Nc3ccncc3)c3ccccc3n2)cc1	inconclusive: 32.6 µM [falling, partial curve, poor fit]
Cc1ccc(NC(=O)CN2C(=O)S/C(=C/c3ccc(-c4cccc(C(=O)O)c4)o3)C2=O)cc1	inconclusive: 18.4 µM [falling, partial curve, poor fit]
CCN1CCN(Cc2ccc(NC(=O)c3ccc(C)c(NC(=O)c4c[nH]c5cc(C(F)(F)F)ccc5c4=O)c3)cc2C(F)(F)F)CC1	inconclusive: 20.6 µM [falling, single point]
O=C(N[C@@H](Cc1ccccc1)C(=O)N1CCC2(CC1)NCCc1[nH]cnc12)c1cccc(Br)c1	inconclusive: 9.2 µM [falling, partial curve, poor fit]
Cc1ccc(CCNC(=O)C2CCN(S(=O)(=O)c3ccc4c(ccn4C)c3)CC2)cc1	inactive
COc1cc(CNCCc2c[nH]c3ccccc23)ccc1OCc1ccccc1F	inactive
CC(C)c1ccc2oc(-c3cc(N)ccc3O)nc2c1	inactive

4 entries from above, set out differently.
O=C(N[C@@H](Cc1ccccc1)C(=O)N1CCC2(CC1)NCCc1[nH]cnc12)c1cccc(Br)c1
  Potency: inconclusive: 9.2 µM [falling, partial curve, poor fit]
Cc1ccc(CCNC(=O)C2CCN(S(=O)(=O)c3ccc4c(ccn4C)c3)CC2)cc1
  Potency: inactive
COc1cc(CNCCc2c[nH]c3ccccc23)ccc1OCc1ccccc1F
  Potency: inactive
CC(C)c1ccc2oc(-c3cc(N)ccc3O)nc2c1
  Potency: inactive

(further entries)

SMILES	Potency
Cc1ccc2nc(-c3ccccn3)c(Nc3ccccc3C)n2c1	inconclusive: 23.1 µM [falling, single point]
O=C(C1CCCN(S(=O)(=O)c2cccc3nsnc23)C1)N1CCN(c2cccc(Cl)c2)CC1 (centres undefined)	inactive
Cc1c(NC(=O)/C(C#N)=C/c2ccc(-c3cccc(Cl)c3)o2)c(=O)n(-c2ccccc2)n1C	inconclusive: 29.1 µM [falling, single point]
COC(=O)C1=C(C(=O)c2ccccc2)C(c2cccs2)n2nnnc2N1 (centres undefined)	inconclusive: 7.31 µM [falling, partial curve, poor fit]
Cc1nn2c(NCCCN(C)C)c3c(nc2c1-c1ccccc1)CCC3	inconclusive: 9.2 µM [activator, partial curve, poor fit]
CCOC(=O)c1cnc2ccc(OCC)cc2c1NCc1ccccc1	inconclusive: 29.1 µM [falling, single point]
COc1ccc(CN2CCN(C(c3ccc(F)cc3)c3ccc(F)cc3)CC2)c(OC)c1OC	inconclusive: 20.6 µM [falling, single point]
COc1ccc(S(=O)(=O)Nc2ccc(Cc3ccncc3)cc2)cc1OC	inactive
CCN(CC)CCCNc1nc2ccccc2c2nc(-c3ccncc3)nn12	inconclusive: 29.1 µM [falling, partial curve, poor fit]
COc1cc(NC(=O)C2CCN(S(=O)(=O)c3c(C)noc3/C=C/c3ccccc3F)CC2)cc(OC)c1OC	inconclusive: 2.59 µM [falling, partial curve, poor fit]
CCCCCN1C(C(=O)c2ccccc2)=C(OC(=O)CC)c2ccccc2S1(=O)=O	inconclusive: 9.2 µM [falling, partial curve]
COC(=O)c1ccccc1NC(=O)NCc1ccccn1	inactive
COc1cccc(CN2CCN(Cc3cc(OC)c(OC)cc3[N+](=O)[O-])CC2)c1	inactive
Nc1ccc(C(=O)N/N=C\c2cc(N=Nc3cccc4ccccc34)ccc2O)cc1	inconclusive: 13 µM [falling, partial curve]
CCOc1ccccc1N1CCN(C(=O)c2cc3ccccc3cc2OC)CC1	inconclusive: 6.51 µM [falling, partial curve, poor fit]
O=C1C(Cl)=C(Nc2ccc(O)cc2)C(=O)c2ccccc21	inconclusive: 29.1 µM [falling, single point]
COC(=O)C1=C(C)NC2=C(C(=O)CCC2)C1c1cccc(C)n1 (centres undefined)	inconclusive: 29.1 µM [activator, single point]
CCN1CCCc2cc(CN(CCN3CCOCC3)C(=O)Nc3ccc(C)c(C)c3)ccc21	inconclusive: 29.1 µM [falling, single point]
CCCN1C(=O)S/C(=C\c2ccc(N3CCOCC3)o2)C1=O	inconclusive: 18.4 µM [falling, partial curve, poor fit]
Cc1cc(C)c(Cn2c(=O)n(CCCC(=O)NCc3ccc4c(c3)OCO4)c(=O)c3sccc32)c(C)c1	inactive
